Laboratory results published in the supplement of paper PMC12819154, “High-throughput peptide-centric local stability assay extends protein–ligand identification to membrane proteins, tissues and bacteria” (Nature Structural & Molecular Biology, 2025).
This is one part of the list. Most values lie at the level of the controls, where differences are scatter.

Amino acid sequences for entries named in this document (tags omitted). A change or cut given only in a name is not applied to a line headed by its entry.
UniProt P26458: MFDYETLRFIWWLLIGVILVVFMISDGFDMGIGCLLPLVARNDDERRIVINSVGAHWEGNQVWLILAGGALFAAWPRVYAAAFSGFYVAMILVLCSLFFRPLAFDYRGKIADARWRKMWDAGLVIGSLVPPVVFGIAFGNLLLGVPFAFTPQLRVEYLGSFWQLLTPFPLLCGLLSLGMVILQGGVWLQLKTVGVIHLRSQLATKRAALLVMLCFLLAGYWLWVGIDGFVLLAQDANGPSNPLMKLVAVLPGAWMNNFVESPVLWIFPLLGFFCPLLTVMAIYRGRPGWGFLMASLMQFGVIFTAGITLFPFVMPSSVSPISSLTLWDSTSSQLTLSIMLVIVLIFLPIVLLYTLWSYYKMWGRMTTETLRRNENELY
UniProt P25535: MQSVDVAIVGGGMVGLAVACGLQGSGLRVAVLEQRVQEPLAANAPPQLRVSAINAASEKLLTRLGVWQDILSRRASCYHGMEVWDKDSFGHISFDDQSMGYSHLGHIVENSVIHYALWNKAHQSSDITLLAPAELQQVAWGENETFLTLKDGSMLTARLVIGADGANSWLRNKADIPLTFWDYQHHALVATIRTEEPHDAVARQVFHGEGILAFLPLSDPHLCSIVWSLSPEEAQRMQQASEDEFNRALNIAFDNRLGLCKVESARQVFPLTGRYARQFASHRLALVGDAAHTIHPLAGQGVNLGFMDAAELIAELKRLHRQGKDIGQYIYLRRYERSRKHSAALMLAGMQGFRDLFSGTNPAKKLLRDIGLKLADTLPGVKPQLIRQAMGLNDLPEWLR
UniProt P33230: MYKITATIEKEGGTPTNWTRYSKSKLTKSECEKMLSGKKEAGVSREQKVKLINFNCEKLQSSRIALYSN
UniProt P33218: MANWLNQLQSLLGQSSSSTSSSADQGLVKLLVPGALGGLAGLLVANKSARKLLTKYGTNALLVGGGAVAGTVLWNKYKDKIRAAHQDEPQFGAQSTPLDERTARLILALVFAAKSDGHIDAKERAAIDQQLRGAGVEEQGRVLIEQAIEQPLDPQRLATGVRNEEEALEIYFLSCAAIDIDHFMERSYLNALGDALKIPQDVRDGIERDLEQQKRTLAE
UniProt P32680: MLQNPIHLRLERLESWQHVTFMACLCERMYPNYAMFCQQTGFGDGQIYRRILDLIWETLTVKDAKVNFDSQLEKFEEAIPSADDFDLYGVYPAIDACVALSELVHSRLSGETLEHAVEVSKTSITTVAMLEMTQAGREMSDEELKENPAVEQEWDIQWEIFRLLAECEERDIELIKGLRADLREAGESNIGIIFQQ
UniProt P28306: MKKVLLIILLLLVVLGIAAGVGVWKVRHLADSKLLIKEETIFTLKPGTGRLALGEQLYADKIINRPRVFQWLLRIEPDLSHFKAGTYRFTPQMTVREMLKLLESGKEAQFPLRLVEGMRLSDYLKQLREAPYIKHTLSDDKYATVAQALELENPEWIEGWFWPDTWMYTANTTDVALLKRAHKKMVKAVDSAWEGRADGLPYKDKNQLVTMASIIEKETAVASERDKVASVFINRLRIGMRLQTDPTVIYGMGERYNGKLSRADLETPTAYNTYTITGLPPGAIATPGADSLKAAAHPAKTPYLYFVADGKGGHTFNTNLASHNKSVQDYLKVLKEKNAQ
UniProt P26365: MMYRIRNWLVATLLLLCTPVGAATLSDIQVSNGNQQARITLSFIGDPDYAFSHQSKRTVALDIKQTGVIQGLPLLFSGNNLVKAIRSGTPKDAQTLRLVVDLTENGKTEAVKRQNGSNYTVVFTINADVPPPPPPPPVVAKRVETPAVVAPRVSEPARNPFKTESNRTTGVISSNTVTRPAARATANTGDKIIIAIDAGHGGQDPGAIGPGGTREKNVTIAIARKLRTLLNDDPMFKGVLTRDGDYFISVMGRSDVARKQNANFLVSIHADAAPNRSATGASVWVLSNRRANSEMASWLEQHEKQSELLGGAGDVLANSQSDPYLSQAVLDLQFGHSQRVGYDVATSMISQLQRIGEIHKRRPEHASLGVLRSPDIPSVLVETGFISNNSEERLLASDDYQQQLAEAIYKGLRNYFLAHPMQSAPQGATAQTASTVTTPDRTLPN
UniProt P30855: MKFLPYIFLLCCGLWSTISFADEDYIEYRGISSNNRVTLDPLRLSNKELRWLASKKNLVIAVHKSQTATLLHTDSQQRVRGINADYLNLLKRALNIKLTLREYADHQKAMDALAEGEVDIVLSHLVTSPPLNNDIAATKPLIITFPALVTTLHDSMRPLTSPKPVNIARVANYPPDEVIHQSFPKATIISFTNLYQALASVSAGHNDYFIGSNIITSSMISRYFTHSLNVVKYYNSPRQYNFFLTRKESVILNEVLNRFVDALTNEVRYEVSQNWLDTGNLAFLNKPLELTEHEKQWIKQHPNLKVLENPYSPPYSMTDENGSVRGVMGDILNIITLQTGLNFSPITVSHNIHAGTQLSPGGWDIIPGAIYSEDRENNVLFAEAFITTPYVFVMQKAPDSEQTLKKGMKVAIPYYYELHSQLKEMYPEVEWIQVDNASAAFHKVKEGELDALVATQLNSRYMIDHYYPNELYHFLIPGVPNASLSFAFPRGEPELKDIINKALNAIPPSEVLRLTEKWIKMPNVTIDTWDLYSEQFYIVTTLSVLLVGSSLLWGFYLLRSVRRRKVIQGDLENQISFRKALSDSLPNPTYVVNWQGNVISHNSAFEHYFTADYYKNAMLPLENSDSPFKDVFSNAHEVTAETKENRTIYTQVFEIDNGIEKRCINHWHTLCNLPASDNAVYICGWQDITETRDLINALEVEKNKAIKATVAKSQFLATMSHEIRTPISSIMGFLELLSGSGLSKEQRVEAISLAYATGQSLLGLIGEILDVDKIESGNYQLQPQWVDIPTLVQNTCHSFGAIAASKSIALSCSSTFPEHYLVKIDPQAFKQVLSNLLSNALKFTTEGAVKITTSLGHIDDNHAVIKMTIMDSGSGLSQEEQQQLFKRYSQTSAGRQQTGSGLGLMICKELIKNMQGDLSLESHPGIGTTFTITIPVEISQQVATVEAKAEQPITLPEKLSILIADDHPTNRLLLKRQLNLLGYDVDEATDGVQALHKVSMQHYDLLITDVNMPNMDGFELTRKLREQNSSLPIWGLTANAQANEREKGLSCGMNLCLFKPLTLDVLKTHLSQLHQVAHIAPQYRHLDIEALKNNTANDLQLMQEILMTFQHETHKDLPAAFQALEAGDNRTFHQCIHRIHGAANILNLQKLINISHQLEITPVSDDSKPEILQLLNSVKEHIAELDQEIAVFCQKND
UniProt P27111: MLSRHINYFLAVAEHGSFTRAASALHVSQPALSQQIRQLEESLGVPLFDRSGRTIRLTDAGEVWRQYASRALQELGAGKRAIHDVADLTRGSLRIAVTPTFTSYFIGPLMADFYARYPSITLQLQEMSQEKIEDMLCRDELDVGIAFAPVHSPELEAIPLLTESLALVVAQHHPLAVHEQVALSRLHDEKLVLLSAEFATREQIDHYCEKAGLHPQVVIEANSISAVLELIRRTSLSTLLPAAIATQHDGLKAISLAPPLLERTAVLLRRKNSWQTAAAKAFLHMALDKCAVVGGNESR
UniProt P27245: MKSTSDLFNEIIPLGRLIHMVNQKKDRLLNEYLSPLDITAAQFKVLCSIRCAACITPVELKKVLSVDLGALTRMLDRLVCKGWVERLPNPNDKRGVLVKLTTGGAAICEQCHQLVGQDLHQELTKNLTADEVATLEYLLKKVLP
UniProt P32675: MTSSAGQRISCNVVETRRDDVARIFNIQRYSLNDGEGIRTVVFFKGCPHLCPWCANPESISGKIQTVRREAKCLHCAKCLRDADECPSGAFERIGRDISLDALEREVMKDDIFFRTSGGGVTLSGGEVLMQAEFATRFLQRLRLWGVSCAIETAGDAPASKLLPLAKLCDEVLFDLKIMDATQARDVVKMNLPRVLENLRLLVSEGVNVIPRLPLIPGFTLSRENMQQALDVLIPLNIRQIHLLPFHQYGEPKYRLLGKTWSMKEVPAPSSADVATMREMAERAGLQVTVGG
UniProt P28630: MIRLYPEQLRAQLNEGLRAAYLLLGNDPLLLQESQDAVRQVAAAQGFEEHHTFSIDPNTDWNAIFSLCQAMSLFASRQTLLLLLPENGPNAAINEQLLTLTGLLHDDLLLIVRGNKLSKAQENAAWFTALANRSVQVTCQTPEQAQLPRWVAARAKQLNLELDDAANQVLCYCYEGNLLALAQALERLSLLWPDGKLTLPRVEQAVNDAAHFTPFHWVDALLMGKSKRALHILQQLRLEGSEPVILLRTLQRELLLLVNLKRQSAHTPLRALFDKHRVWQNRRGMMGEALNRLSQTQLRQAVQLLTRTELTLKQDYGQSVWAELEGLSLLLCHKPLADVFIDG
UniProt P30176: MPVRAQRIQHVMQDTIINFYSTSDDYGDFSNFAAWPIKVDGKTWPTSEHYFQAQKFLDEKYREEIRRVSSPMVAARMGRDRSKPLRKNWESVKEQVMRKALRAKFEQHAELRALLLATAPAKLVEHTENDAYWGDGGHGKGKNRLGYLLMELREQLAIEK
UniProt P31808: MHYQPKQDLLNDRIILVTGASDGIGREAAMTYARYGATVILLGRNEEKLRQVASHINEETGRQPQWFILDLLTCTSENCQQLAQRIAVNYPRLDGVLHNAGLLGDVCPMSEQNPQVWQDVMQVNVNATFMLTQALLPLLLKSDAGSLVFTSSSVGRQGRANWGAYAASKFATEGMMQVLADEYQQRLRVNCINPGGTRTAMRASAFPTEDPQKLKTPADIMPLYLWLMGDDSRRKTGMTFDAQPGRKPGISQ
UniProt P33030: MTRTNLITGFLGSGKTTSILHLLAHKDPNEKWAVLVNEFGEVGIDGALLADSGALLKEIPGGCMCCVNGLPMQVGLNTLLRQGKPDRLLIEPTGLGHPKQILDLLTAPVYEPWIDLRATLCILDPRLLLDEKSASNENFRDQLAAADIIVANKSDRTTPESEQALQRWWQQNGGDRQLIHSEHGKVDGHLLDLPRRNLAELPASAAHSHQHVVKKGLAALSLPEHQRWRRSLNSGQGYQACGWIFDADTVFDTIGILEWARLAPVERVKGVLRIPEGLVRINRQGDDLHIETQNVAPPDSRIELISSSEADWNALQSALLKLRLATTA
UniProt P25549: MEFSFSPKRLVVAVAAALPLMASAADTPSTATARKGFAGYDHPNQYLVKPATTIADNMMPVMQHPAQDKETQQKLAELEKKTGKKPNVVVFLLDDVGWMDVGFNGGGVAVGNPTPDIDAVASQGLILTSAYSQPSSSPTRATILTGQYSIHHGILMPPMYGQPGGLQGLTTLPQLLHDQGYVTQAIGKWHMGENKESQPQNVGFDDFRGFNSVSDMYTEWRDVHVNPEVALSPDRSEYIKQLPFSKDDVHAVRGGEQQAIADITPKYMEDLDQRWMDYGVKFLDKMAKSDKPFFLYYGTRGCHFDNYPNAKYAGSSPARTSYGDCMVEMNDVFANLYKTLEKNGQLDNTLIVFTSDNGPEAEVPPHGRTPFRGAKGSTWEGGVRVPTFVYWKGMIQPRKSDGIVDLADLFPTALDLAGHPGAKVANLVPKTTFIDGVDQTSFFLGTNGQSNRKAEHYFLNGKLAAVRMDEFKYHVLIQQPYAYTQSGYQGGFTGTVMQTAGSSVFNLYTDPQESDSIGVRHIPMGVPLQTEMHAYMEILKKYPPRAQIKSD
UniProt P30128: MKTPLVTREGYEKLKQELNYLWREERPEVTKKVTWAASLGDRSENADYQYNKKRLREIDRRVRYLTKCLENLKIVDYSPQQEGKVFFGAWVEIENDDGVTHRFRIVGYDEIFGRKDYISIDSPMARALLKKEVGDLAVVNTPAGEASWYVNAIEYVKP
UniProt P30750: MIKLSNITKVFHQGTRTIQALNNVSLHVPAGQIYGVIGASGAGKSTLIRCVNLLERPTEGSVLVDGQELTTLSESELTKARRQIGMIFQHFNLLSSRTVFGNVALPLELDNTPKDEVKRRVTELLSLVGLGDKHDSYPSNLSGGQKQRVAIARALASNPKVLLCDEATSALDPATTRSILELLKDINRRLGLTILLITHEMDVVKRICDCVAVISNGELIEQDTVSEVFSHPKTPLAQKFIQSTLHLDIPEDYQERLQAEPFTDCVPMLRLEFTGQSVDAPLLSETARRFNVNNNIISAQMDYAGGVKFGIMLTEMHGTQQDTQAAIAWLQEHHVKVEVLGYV
UniProt P27848: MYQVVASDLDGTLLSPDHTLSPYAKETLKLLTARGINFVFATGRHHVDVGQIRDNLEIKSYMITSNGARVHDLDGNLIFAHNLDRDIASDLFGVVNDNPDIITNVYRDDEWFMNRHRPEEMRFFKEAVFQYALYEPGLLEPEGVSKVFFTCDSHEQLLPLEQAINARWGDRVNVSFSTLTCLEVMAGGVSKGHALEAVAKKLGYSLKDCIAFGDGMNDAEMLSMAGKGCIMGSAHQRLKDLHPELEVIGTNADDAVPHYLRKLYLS
UniProt P25536: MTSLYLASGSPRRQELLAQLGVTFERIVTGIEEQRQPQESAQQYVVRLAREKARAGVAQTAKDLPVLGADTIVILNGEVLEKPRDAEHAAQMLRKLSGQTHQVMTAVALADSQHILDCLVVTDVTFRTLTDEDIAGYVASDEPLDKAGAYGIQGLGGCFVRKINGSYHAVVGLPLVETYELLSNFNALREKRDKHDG

These targets were tested with CC1(C)S[C@@H]2[C@H](NC(=O)[C@H](N)c3ccccc3)C(=O)N2[C@H]1C(=O)O [ampicillin] (assay: log2 fold change of tryptic peptide abundance, ligand vs vehicle (limited proteolysis) (log2 ratio); higher = more trypsin-susceptible (destabilized)). Settings: ligand concentration: 10 uM; sample: E. coli crude lysate.

Target	log2 fold change
UniProt P26458 (peptide sequence: RNENELY, peptide start residue: 372)	0.0274
UniProt P25535 (peptide sequence: HSAALMLAGMQGFR, peptide start residue: 341)	0.561
UniProt P33230 (peptide sequence: LINFNCEK, peptide start residue: 51)	-0.122
UniProt P31825 (peptide sequence: QFFVAHDR, peptide start residue: 17)	-0.192
UniProt P25906 (peptide sequence: SPNILLIPGTSSVAHLR, peptide start residue: 246)	-0.173
UniProt P33218 (peptide sequence: ERAAIDQQLR, peptide start residue: 123)	-0.636
UniProt P32680 (peptide sequence: LSGETLEHAVEVSK, peptide start residue: 108)	0.217
UniProt P28635 (peptide sequence: IVELEAPQLPR, peptide start residue: 179)	-0.328
UniProt P28306 (peptide sequence: DKVASVFINR, peptide start residue: 226)	0.393
UniProt P26365 (peptide sequence: LVVDLTENGKTEAVKR, peptide start residue: 98)	0.175
UniProt P30855 (peptide sequence: ITTSLGHIDDNHAVIK, peptide start residue: 851)	0.914
UniProt P30130 (peptide sequence: VENQTGVR, peptide start residue: 731)	0.565
UniProt P24555 (peptide sequence: VMASQQALQDR, peptide start residue: 50)	-0.794
UniProt P33599 (peptide sequence: IMMPQTWK, peptide start residue: 154)	-0.248
UniProt P27242 (peptide sequence: SIQIVSPTYTVK, peptide start residue: 326)	-0.352
UniProt P31826 (peptide sequence: NCQHAVQVADASIR, peptide start residue: 362)	0.0303
UniProt P27111 (peptide sequence: LTDAGEVWR, peptide start residue: 57)	-0.104
UniProt P27245 (peptide sequence: LIHMVNQKK, peptide start residue: 17)	0.355

Target	log2 fold change
UniProt P32675 (peptide sequence: LLVSEGVNVIPR, peptide start residue: 201)	-0.571
UniProt P28630 (peptide sequence: LSLLWPDGKLTLPR, peptide start residue: 188)	-0.467
UniProt P31678 (peptide sequence: IGTGATQASWR, peptide start residue: 219)	0.454
UniProt P27550 (peptide sequence: TLFGDHER, peptide start residue: 476)	-0.476
UniProt P30176 (peptide sequence: AKFEQHAELR, peptide start residue: 103)	-0.306
UniProt P30859 (peptide sequence: RVEAVMAGMDITPER, peptide start residue: 80)	-0.615
UniProt P31808 (peptide sequence: TGMTFDAQPGRK, peptide start residue: 236)	0.43
UniProt P33030 (peptide sequence: KGLAALSLPEHQR, peptide start residue: 215)	0.214
UniProt P25549 (peptide sequence: VPTFVYWK, peptide start residue: 385)	0.402
UniProt P24182 (peptide sequence: IQVEHPVTEMITGVDLIK, peptide start residue: 293)	0.37
UniProt P31446 (peptide sequence: GLLAGIKGEK, peptide start residue: 54)	0.249
UniProt P33602 (peptide sequence: FQPQDGKWR, peptide start residue: 803)	-0.687
UniProt P30128 (peptide sequence: SENADYQYNKKR, peptide start residue: 43)	-0.552
UniProt P30750 (peptide sequence: RQIGMIFQHFNLLSSR, peptide start residue: 82)	0.175
UniProt P27848 (peptide sequence: HHVDVGQIRDNLEIK, peptide start residue: 45)	0.276
UniProt P32157 (peptide sequence: RLSGKIEDFSR, peptide start residue: 209)	0.21
UniProt P25536 (peptide sequence: IVTGIEEQR, peptide start residue: 27)	0.0207

Shown comma-delimited: part of the list above.
Target,log2 fold change
"UniProt P32675 (peptide sequence: LLVSEGVNVIPR, peptide start residue: 201)",-0.571
"UniProt P31678 (peptide sequence: IGTGATQASWR, peptide start residue: 219)",0.454
"UniProt P30176 (peptide sequence: AKFEQHAELR, peptide start residue: 103)",-0.306
"UniProt P33030 (peptide sequence: KGLAALSLPEHQR, peptide start residue: 215)",0.214
"UniProt P33602 (peptide sequence: FQPQDGKWR, peptide start residue: 803)",-0.687
"UniProt P27848 (peptide sequence: HHVDVGQIRDNLEIK, peptide start residue: 45)",0.276
